Test results: PubChem BioAssay AID504834 (National Center for Advancing Translational Sciences (NCATS), 2011)
“And” between values parts separate entries of the source, which are not always exact repeats. Equal entries are not always repeated. Out of some 320,000 compounds screened, about 22,000 (6.9%) were called active. The inconclusive results got no clear call from the source; some entries with a clear call stand among them for comparison. Calls follow the shape of the dose curve; as a rule, active = well fitted inhibition curve with a large enough effect; inconclusive = small, poorly fitted or top-dose-only effect, or another doubt; inactive = no such curve, though single readings can be large or run the other way. Potencies of inconclusive entries are doubtful fits and often do not repeat. Some structures have more than one record in an assay (separate samples or runs), and their calls can disagree.

Assay: Primary qHTS for delayed death inhibitors of the malarial parasite plastid, 96 hour incubation
Details: P. falciparum luciferase reporter growth; series mostly up to 28.7 µM
How it was run: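 Two parasite generations (96 h, 37 C, 5% CO2) of compound exposure in infected erythrocytes (0.05% parasitemia, 2% hematocrit). Luciferase-reporter P. falciparum; decreased luminescence indicates inhibited growth, aimed at apicoplast-acting delayed death.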
Potency is read from the fitted curve at half-maximal effect.

SMILES | Potency
O=C(NCCCn1ccnc1)c1cn(-c2ccccc2)nc1-c1ccc(F)cc1 | inactive
O=C(CNC(=O)c1cccs1)OCc1ccc(Cl)cc1 | inactive
OC(C#CCCN1CCCCC1)(c1ccccc1)c1ccccc1 | inconclusive: 18.5 µM [inhibitor, single point]
C=CCN1C(=O)[C@]2(c3ccccc31)C1CCCC=C1C(C#N)=C(N)C2(C#N)C#N (stereo not given in full) | inconclusive: 0.0828 µM [inhibitor, full curve, poor fit]
CCOc1ccc(S(=O)(=O)N2CCN(C(=O)c3cc4c(s3)CCCC4)CC2)cc1 | inconclusive: 18.5 µM [inhibitor, single point]
Cc1nc2ccccc2c2c1C(=O)N(CCC1=CCCCC1)C2=O | inconclusive: 14.7 µM [inhibitor, partial curve, poor fit]
Cc1ccc(C)c(S(=O)(=O)N2CCN(C(=O)c3ccc4ccccc4n3)CC2)c1 | inconclusive: 18.5 µM [inhibitor, single point]
Cc1cc(C)c2c(c1)-c1c(ssc1=S)C(C)(C)N2C(=O)CN1C(=O)c2ccccc2C1=O | inconclusive: 18.5 µM [inhibitor, single point]
COc1ccc(NC(=O)CSc2nc(N)c3cc4c(nc3n2)CCCC4)c(OC)c1 | inconclusive: 2.08 µM [inhibitor, full curve, poor fit]
O=C(NNC(=O)c1ccc([N+](=O)[O-])cc1Cl)c1ccncc1 | inactive
Cc1ccc(-c2nnn(CC(=O)NCC3CC3)n2)o1 | inconclusive: 18.5 µM [inhibitor, single point]
CCc1nnc(NC(=O)CCC(=O)Nc2ccc(Cl)cc2)s1 | inactive
COCCN(CCOC)C(=O)CC(=O)N(CCOC)CCOC | inactive
CC1Nc2ncnc(N3CCN(c4ccccc4)CC3)c2N(Cc2ccc(Cl)cc2)C1=O (stereo not given) | active: 13.1 µM
O=C(CCc1nnc(Cc2ccc(-c3ccccc3)cc2)o1)NCCc1cccnc1 | inconclusive: 18.5 µM [inhibitor, single point]
CN(Cc1cnn(C)c1)S(=O)(=O)c1cccc([N+](=O)[O-])c1 | inconclusive: 18.5 µM [inhibitor, single point]
COc1ccc(CC(=O)NCC(=O)NC(Cc2ccccc2)C(=O)O)cc1 (stereo not given) | inactive
c1ccc(C2CC(c3ccccc3)n3c(nc4ccccc43)N2)cc1 (stereo not given) | inconclusive: 18.5 µM [inhibitor, single point]
COc1ccc(OCC(=O)N2CCN(C(=O)c3cccc(F)c3)CC2)cc1 | inconclusive: 9.28 µM [inhibitor, single point]
CC[C@H](C)/C=C(C)/C=C/C(=O)Cc1cc(O)c(C)c(O)c1C=O | inconclusive: 8.28 µM [inhibitor, partial curve]
COc1ccc(CCNC(=O)/C(C#N)=C2\N=C(NC(=O)c3ccco3)c3ccccc32)cc1 | inconclusive: 18.5 µM [inhibitor, single point]
Cc1cc(Br)c2c(c1)=C(c1sc(N3CCCCCC3)nc1O)C(=O)N=2 | inactive
O=C(NNC(=O)C1CCCC1)c1cc([N+](=O)[O-])cc([N+](=O)[O-])c1 | inactive
O=C(Nc1ccccc1C(=O)NCCCN1CCOCC1)c1ccc(F)cc1 | inactive

Entries from the list above with a halogen (eight):
SMILES | Potency
O=C(NCCCn1ccnc1)c1cn(-c2ccccc2)nc1-c1ccc(F)cc1 | inactive
O=C(CNC(=O)c1cccs1)OCc1ccc(Cl)cc1 | inactive
O=C(NNC(=O)c1ccc([N+](=O)[O-])cc1Cl)c1ccncc1 | inactive
CCc1nnc(NC(=O)CCC(=O)Nc2ccc(Cl)cc2)s1 | inactive
CC1Nc2ncnc(N3CCN(c4ccccc4)CC3)c2N(Cc2ccc(Cl)cc2)C1=O (stereo not given) | active: 13.1 µM
COc1ccc(OCC(=O)N2CCN(C(=O)c3cccc(F)c3)CC2)cc1 | inconclusive: 9.28 µM [inhibitor, single point]
Cc1cc(Br)c2c(c1)=C(c1sc(N3CCCCCC3)nc1O)C(=O)N=2 | inactive
O=C(Nc1ccccc1C(=O)NCCCN1CCOCC1)c1ccc(F)cc1 | inactive

Shown as comma-separated lines: part of the list above
SMILES,Potency
O=C(CCc1nnc(Cc2ccc(-c3ccccc3)cc2)o1)NCCc1cccnc1,"inconclusive: 18.5 µM [inhibitor, single point]"
CN(Cc1cnn(C)c1)S(=O)(=O)c1cccc([N+](=O)[O-])c1,"inconclusive: 18.5 µM [inhibitor, single point]"

Next part:

SMILES | Potency
CCOC(=O)[C@H]1[C@H]2COc3ccc(C)cc3[C@@H]2N2C(=O)c3cc(OC)c(OC)cc3NC(=O)[C@@]12C | inconclusive: 13.1 µM [inhibitor, partial curve, poor fit]
CCOCCCNC(=S)N1CCCN(c2nc3c(C)c(C)ccc3cc2C#N)CC1 | inconclusive: 14.7 µM [inhibitor, single point]
CCOC(=O)C1CCN(C(=O)CNC(=O)c2nn(-c3ccc(OC)cc3)c(=O)c3ccccc23)CC1 | inconclusive: 10.4 µM [inhibitor, single point]
COc1ccccc1N1CCN(C(=O)CCC(=O)Nc2nnc(C(C)C)s2)CC1 | active: 11.7 µM
CN(CC(=O)Nc1cccc(F)c1)C(=O)c1ccc(C(=O)c2ccccc2)cc1 | active: 9.28 µM
CCOc1ccccc1NC(=O)c1cc(S(=O)(=O)N2CCOCC2)ccc1C | active: 11.7 µM
Cn1cc(C(=O)NCCO)c(=O)c2ccccc21 | inconclusive: 0.131 µM [inhibitor, full curve, poor fit]
Cc1cccc(OCC(=O)O/N=C(\N)Cc2ccc(Cl)cc2)c1 | inactive
O=C(NCCc1ccccc1Cl)c1ccc2nc3ccccc3c(=O)n2c1 | inconclusive: 14.7 µM [inhibitor, single point]
CCOC(=O)N1CCN(C(=O)CSc2ccc(-c3ccccc3)nn2)CC1 | inconclusive: 10.4 µM [inhibitor, single point]
COc1ccc(C(=O)Nc2ccccn2)cc1 | inactive
COCCCNC(=S)N(Cc1cccnc1)Cc1ccc(OC)c(OC)c1 | inconclusive: 18.5 µM [inhibitor, single point]
CCCCOC(=O)c1ccc(NC(C)=O)cc1 | inconclusive: 0.0738 µM [inhibitor, full curve, poor fit]
NCC(c1ccccc1Cl)c1c[nH]c2ccccc12 (stereo not given) | inconclusive: 6.57 µM [inhibitor, partial curve]
CC1CCN(C(=O)CSc2nnc(Cc3cc(=O)[nH]c(=O)[nH]3)n2-c2ccc(Cl)cc2)CC1 | inconclusive: 16.5 µM [inhibitor, single point]
CCCn1nc(NC(=O)C(C)(C)C)c2cc3cc(OC)ccc3nc21 | inconclusive: 10.4 µM [inhibitor, partial curve]
CCOC(=O)c1ccc(NC(=O)C2COc3ccccc3O2)cc1 (stereo not given) | inconclusive: 13.1 µM [inhibitor, partial curve, poor fit]
O=C(CSc1nn(-c2ccc(Cl)cc2)c(=S)s1)NCC1CCCO1 (stereo not given) | inconclusive: 11.7 µM [inhibitor, partial curve, poor fit]
COc1ccc(NC(=O)c2cc(Br)c(Br)s2)cn1 | inactive
O=C(CN1CCOCC1)Nc1nc(-c2ccc(Cl)cc2)cs1 | inactive
Cc1cc(S(=O)(=O)N2CCCC2)ccc1OCC(=O)NC1CCCC1 | inactive
O=c1[nH]c2c(s1)C(c1ccco1)C1C3CCC(C3)C1S2 (stereo not given) | inconclusive: 9.28 µM [inhibitor, single point]
Cc1cccc(-c2noc(Cc3ccccc3)n2)c1 | inactive
Cc1cccc(NC(=O)/C=C/c2cccs2)n1 | inactive

SMILES | Potency
O=C(c1c[nH]c2ccc(S(=O)(=O)N3CCC4(CC3)OCCO4)cc2c1=O)N1CCC2(CC1)OCCO2 | inconclusive: 18.5 µM [inhibitor, single point]
COc1ccc(-c2csc(NC(=O)/C(N=Nc3ccccc3)=C(\C)O)n2)cc1 | inactive
CCCCn1c(N)c(N(Cc2ccccc2OC)C(=O)COc2cc(C)ccc2Cl)c(=O)[nH]c1=O | inconclusive: 10.4 µM [inhibitor, single point]
COc1ccc(C(=O)N(Cc2ccccc2)c2cccc(C)c2)cc1S(=O)(=O)N1CCOCC1 | active: 5.22 µM
O=[N+]([O-])c1cccc2ccc(/C=C/c3ccc(F)cc3)nc12 | inactive
O=C(NC(NC1CCS(=O)(=O)C1)C(Cl)(Cl)Cl)c1ccc(Br)cc1 (stereo not given) | inconclusive: 18.5 µM [inhibitor, single point]
CCOCCOC(=O)c1ccc(NC(=O)C2COc3ccccc3O2)cc1 (stereo not given) | inconclusive: 13.1 µM [inhibitor, single point]
FC(F)(F)c1cccc(Nc2nc(N3CCOCC3)nc(N3CCOCC3)n2)c1 | inconclusive: 18.5 µM [inhibitor, single point]
Cc1ccc(NCc2nnc(SCC(=O)c3ccccc3)n2Cc2ccco2)c(C)c1 | inconclusive: 13.1 µM [inhibitor, partial curve, poor fit]
Cc1ccc(CCNC(=O)C2CC(c3ccccc3[N+](=O)[O-])=NO2)cc1 (stereo not given) | inconclusive: 13.1 µM [inhibitor, single point]
O=C(NCc1ccc2c(c1)OCO2)Nc1ccc(F)cc1 | inconclusive: 14.7 µM [inhibitor, single point]
COc1ccc(NC(=O)C2CCCN2S(=O)(=O)c2cccc3cccnc23)cc1OC (stereo not given) | inconclusive: 10.4 µM [inhibitor, partial curve, poor fit]
CCOc1ccc(NC(=O)CN(C)C(=O)c2cccnc2Sc2ccc(C)c(C)c2)cc1OCC | inactive
Cc1cccc(C(=O)N[C@H](C(=O)Nc2ccc(C)c(S(=O)(=O)N(C)C)c2)C(C)C)c1 | inconclusive: 18.5 µM [inhibitor, single point]
Cc1ccc(S(=O)(=O)N2CCN(C(=O)CSc3nc4ccccc4o3)C2)cc1 | inconclusive: 11.7 µM [inhibitor, single point]
COc1ccc2[nH]c3c(c2c1)CC(C)NC3=O (stereo not given) | inconclusive: 18.5 µM [inhibitor, single point]
O=C1CC(C(=O)Nc2cccc(Cl)c2)n2ncnc2N1 (stereo not given) | inconclusive: 8.28 µM [inhibitor, partial curve, poor fit]
CC(C)C(c1nnnn1Cc1cccs1)N1CCN(C(=O)c2ccco2)CC1 (stereo not given) | inactive
N#Cc1ccc(N=c2ssnc2Cl)cc1 | inactive and active: 11.7 µM
O=C(Nc1nccs1)c1cc(S(=O)(=O)N2CCOCC2)ccc1Cl | inactive
Cc1c(Br)c([N+](=O)[O-])nn1CC(=O)Nc1ccc(CC#N)cc1 | inconclusive: 18.5 µM [inhibitor, single point]
O=C(NCc1cccc(Cl)c1)c1cnn2c1NC(c1ccco1)CC2C(F)(F)F (stereo not given) | inconclusive: 5.22 µM [inhibitor, single point]
